Our source for the TI values is patent US10980754B2, “Anti-fungal compounds” (SAINT LOUIS UNIVERSITY, priority 2016, dated 2021).

The subject of one series is C. neoformans var grubii, KN99. Nature of the series: Inhibition of C. neoformans growth, limiting dilution assay (MIC). The series is classed as cell-based. The settings on record: Table 3; CC50/MIC. The method, then:
Strains and media. All inhibition assays were performed with C. neoformans var grubii, KN99 (serotype A, MATα; kindly provided by Jennifer Lodge). Two clinical strains of C. neoformans var grubii, serotype A, were kindly provided by Tamara Doering and Andre Spec. […] Each assay was done in triplicate and all values are the average of two or more independent assays. The data are presented as the average cell density as a percent of DMSO-only treated cells. […] However, these conditions are unlike conditions encountered by C. neoformans in mammalian infections, where nutrients are limited, and the pH and temperature are higher than in YPD media. The cryptococcal stress response to low glucose and high pH and temperature may alter its susceptibility to the inhibitors. It is also possible that the enzymes targeted by the inhibitors may render the cell temperature sensitive when inhibited. To better mimic growth in mammals, growth was tested without shaking in nutrient-limited media at 35° C. […] However, as the nutrient-limited media and higher temperature is more similar to mammalian cell growth conditions, these conditions were used for all further assays. […] All values were measured at least two times in independent experiments and the average MIC is reported.
Compound `O=c1cccccc1S` [Compound 363] showed a TI of 105.

For the compound `O=C(Sc1cccccc1=O)c1ccccc1` [Compound 364], the TI was found to be 230.

In turn, `Cc1ccc(CSc2cccccc2=O)cc1` [Compound 365] registered a TI of about 2.

The same series, now with this note: therapeutic index, CC50/MIC.
`CC(C)c1ccc(O)c(=O)c(O)c1` [Compound 46, β-thujaplicinol] returned a TI of 3.

For `CC(C)c1cccc(=O)c(O)c1` [Compound 47, β-thujaplicin], the TI is on record as 3.

On to `CC(C)c1ccc(O)c(=O)cc1` [Compound 48, γ-thujaplicin], for which the TI came to 5.

`CC(C)=CCc1ccc(=O)c(O)cc1C(C)C` [Compound 49, Nootkatin] yielded a TI of 1.

For `O=Nc1ccc(O)c(=O)cc1` [Compound 50, 5-nitrosotropolone], the TI is on record as 1.

Compound `O=C(Oc1cccccc1=O)c1ccc([N+](=O)[O-])cc1` [Compound 51, tropolone p-nitrobenzoate] came in with a TI of 4.

For `O=C(Nc1ccc(O)c(=O)cc1)c1ccccc1` [Compound 52], the TI is listed as 2.

`O=c1cccccc1O` [Compound 53, Tropolone] came in with a TI of 4.

In the case of `CC(=O)NC(CCc1ccc(Cl)c(Cl)c1)c1cccc(O)c(=O)c1` (stereo not shown) [Compound 55], the TI is on record as under 1.

`C=C(C)C1CCc2c(c(C)cc(O)c(=O)c2O)C1` (stereo not shown) [Compound 56, Manicol] displayed a TI of under 1.

With `O=c1cccccc1Cl` [Compound 57, 2-chlorotropone], the TI was 1.

Consider `Cc1ccc(C(=O)Nc2cccccc2=O)cc1` [Compound 60], for which the TI amounted to 2.

Compound `Cc1ccc(S(=O)(=O)Oc2cccccc2=O)cc1` [Compound 61] showed a TI of under 1.

With `O=C(Oc1cccccc1=O)c1ccc(Cl)cc1` [Compound 63], the TI is on record as 6.

In turn, `COC(=O)c1c(C)cc(O)c(=O)c(O)c1C(=O)OC` [Compound 106] gave a TI of under 1.

Turning to `COC(=O)c1c(CCl)cc(O)c(=O)c(O)c1C(=O)OC` [Compound 107], the TI is 2.

With `COCc1cc(O)c(=O)c(O)c(C(=O)OC)c1C(=O)OC` [Compound 108], the TI is 2.

`CC(=O)c1cc(O)c(=O)c(O)cc1C` [Compound 110] yielded a TI of under 1.

The compound `Cc1cc(O)c(=O)c(O)cc1C(=O)c1ccccc1` [Compound 111] came in with a TI of 1.

For `Cc1cc(O)c(=O)c(O)cc1-c1ccc([N+](=O)[O-])cc1` [Compound 112], the TI is 1.

Compound `Cc1cc(O)c(=O)c(O)cc1-c1ccc(Br)cc1` [Compound 114] gave a TI of 1.

Compound `Cc1cc(O)c(=O)c(O)cc1C(=O)c1ccc(-c2ccccc2)cc1` [Compound 118] yielded a TI of 1.

Regarding `Cc1cc(O)c(=O)c(O)cc1C(=O)C1CCCCC1` [Compound 120], the TI was 2.

With `Cc1cc(O)c(=O)c(O)cc1C(=O)C(C)C` [Compound 143], the TI is 2.

The compound `Cc1cc(O)c(=O)c(O)cc1-c1ccc(C(F)(F)F)cc1` [Compound 145] came in with a TI of 1.

Consider `Cc1cc(O)c(=O)c(O)cc1-c1cccc2ccccc12` [Compound 146], for which the TI was 1.

`O=c1c(O)ccccc1O` [Compound 172, 7-Hydroxytropolone] had a TI of 4.

`Cc1ccc(O)c(=O)c(O)c1` [Compound 210] displayed a TI of 5.

In turn, `O=c1c(O)ccc(-c2ccccc2)cc1O` [Compound 262, 2,7-dihydroxy-4-phenylcyclohepta-2,4,6-trien-1-one] gave a TI of 5.

`O=c1c(O)ccc(-c2ccc(-c3ccccc3)cc2)cc1O` [Compound 264, 4-([1,1′-biphenyl]-4-yl)-2,7-dihydroxycyclohepta-2,4,6-trien-1-one] yielded a TI of under 1.

For `COC(=O)c1cc(O)c(=O)c(OC)cc1C` [Compound 273], the TI was found to be 2.

For `COC(=O)c1c2c(cc(O)c(=O)c1O)COC2=O` [Compound 280, Methyl 5,7-dihydroxy-3,6-dioxo-3,6-dihydro-1H-cyclohepta[c]furan-4-carboxylate], the TI is listed as 1.

`Cc1ccccc1C(=O)Oc1cccccc1=O` [Compound 281] displayed a TI of 2.

Turning to `O=C(Oc1cccccc1=O)c1ccccc1Cl` [Compound 282], the TI was determined as 3.

With `Cc1cc(O)c(=O)c(O)cc1C(=O)c1cccs1` [Compound 308, 4-(thiopene-2-carbonyl)-2,7-dihydroxy-5-methylcyclohepta-2,4,6-trien-1-one], the TI came out at 2.

On to `Cc1cc(O)c(=O)c(O)cc1C(=O)c1ccco1` [Compound 309, 4-(furan-2-carbonyl)-2,7-dihydroxy-5-methylcyclohepta-2,4,6-trien-1-one], for which the TI was 1.

The compound `Cc1cc(O)c(=O)c(O)cc1C(=O)C1CC1` [Compound 310, 4-(cyclopropanecarbonyl)-2,7-dihydroxy-5-methylcyclohepta-2,4,6-trien-1-one] displayed a TI of 3.

In turn, `Cc1cc(O)c(=O)c(O)cc1C(=O)c1ccccc1O` [Compound 311, 4-(2-hydroxybenzoyl)-2,7-dihydroxy-5-methylcyclohepta-2,4,6-trien-1-one] came in with a TI of 1.

The compound `COc1ccc(C(=O)c2cc(O)c(=O)c(O)cc2C)cc1` [Compound 312, 4-(4-methoxybenzoyl)-2,7-dihydroxy-5-methylcyclohepta-2,4,6-trien-1-one] showed a TI of 1.

Take `Cc1cc(O)c(=O)c(O)cc1C(=O)c1ccc([N+](=O)[O-])cc1` [Compound 313, 2,7-dihydroxy-4-methyl-5-(4-nitrobenzoyl)cyclohepta-2,4,6-trien-1-one]: the TI worked out at 2.

`Cc1cc(O)c(=O)c(O)cc1C(=O)c1ccc2ccccc2c1` [Compound 315, 4-(2-naphthoyl)-2,7-dihydroxy-5-methylcyclohepta-2,4,6-trien-1-one] had a TI of 1.

In turn, `COc1cc(C)c(C(=O)c2ccccc2)c(C(=O)c2ccccc2)c(O)c1=O` [Compound 317, (7-hydroxy-5-methoxy-3-methyl-6-oxocyclohepta-2,4,7-triene-1,2-diyl) bis (phenyl methanone)] came in with a TI of 2.

`Cc1cc(O)c(=O)c(O)cc1C(=O)O` [Compound 319, 4,6-dihydroxy-2-methyl-5-oxocyclohepta-1,3,6-triene-1-carboxylic Acid] had a TI of 2.
